Reference: article PMC6059495

Biological target: T. gondii ATP synthase OSCP subunit tagged with YFP-HA (TgATPOSCP-YFP-HA) (T. gondii)
Test: affinity purification with mass spectrometry; α-HA antibodies cross-linked to Protein A/G Plus agarose; supernatant of DDM-solubilized mitochondria of TgATPOSCP-YFP-HA tachyzoites, overnight at 4 °C; washed with PBS with DDM; eluted with 0.2 M glycine pH 2.3; LC-MS/MS

B1: ASAP TGME49_223040 (protein, UniProt S8FBB2 1-239)
chain: MAETREGGQSGAASILGAEAFPELLSKVPLNPQMDEDKHFNKYKWGNEPIPVNRRTGSRMNSSIYDNRNHEAVRHPWSTDARTFHPNDNPEADRINTQYSNMVSDSFPEGGFSDAPRFSSNWERLLAYHHGLYSPEKFNSTTKTADEIRLAVNDFAAKVHADDPKNACKYLMIEEFKCLQSAQARIDPQGAATKCVKWFNEWRQCAWDQEKMVKGYNYIEDRRARKHKPYIGAPDLQYS
- binding: binds

No constants are given. Whether binding was seen depends on the method and setting. In cells and extracts the contact can be indirect. These calls come from enrichment with a bait or labelling near it, and not all partners need be listed.
